Measured values taken from PubChem BioAssay AID504467 (National Center for Advancing Translational Sciences (NCATS), 2011).
Hit rate of the full screen: of about 330,000 compounds, about 7,700 (2.3%) were called active. The shares of active, inactive and inconclusive entries below differ from those in the screen. Calls follow the shape of the dose curve; as a rule, active = well fitted inhibition curve with a large enough effect; inconclusive = small, poorly fitted or top-dose-only effect, or effect the other way; inactive = flat fitted curve, though single readings scatter. Potencies beside an inconclusive call are fits to weak or partial responses and may not hold up.

Assay: qHTS screen for small molecules that inhibit ELG1-dependent DNA repair in human embryonic kidney (HEK293T) cells expressing luciferase-tagged ELG1; also: nearly all actives have a fitted effect of over 55% in size
Details: HEK293T ELG1-luciferase reporter, luminescence, 16 h, DNA damage induced by 5-fluorouridine; series mostly up to 46.1 µM
Procedure, shortened: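 Quantitative HTS, concentration-response format. 2,000 cells/well co-treated with 5-fluorouridine and compound, 16 hr in 5% CO2 at 37 °C; ONE-Glo luminescence read after 30 min.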
Potency is read from the fitted curve at half-maximal effect.

| Structure (SMILES) | Potency |
| --- | --- |
| C=CCn1c(SCC(N)=O)nnc1-c1cc2c(s1)CCC(CC)C2 (centres undefined) | inconclusive: 10.3 µM [activator, partial curve] |
| O=C(CSc1nnc(-c2ccncc2)n1Cc1ccccc1)NC1CCCc2ccccc21 (centres undefined) | inconclusive: 23.1 µM [inhibitor, single point] |
| O=C(CSc1nnc(-c2cccs2)n1-c1ccccc1)N1CCCC1 | inconclusive: 1.16 µM [activator, single point] |
| COC(=O)Cn1c(=NC(=O)c2ccc(Cl)s2)sc2cc(F)ccc21 | inconclusive: 9.2 µM [activator, partial curve] |
| Cc1ccc(/C=N/Nc2ccccn2)s1 | inconclusive: 14.6 µM [activator, partial curve] |
| CCOc1ccc2oc(C(=O)OCC(=O)N3CCCC(C)C3)c(C)c2c1 (centres undefined) | inconclusive: 32.6 µM [inhibitor, single point] |
| CN(Cc1ccccc1)c1ncnc2ccc(Br)cc12 | active: 18.4 µM |
| COc1cccc(NC(=O)CCC(=O)Nc2cc(OC)c(NC(=O)c3cccs3)cc2OC)c1 | inconclusive: 29.1 µM [inhibitor, single point] |
| CC(Oc1ccc2c(c1)oc(=O)c1ccccc12)C(=O)NCC1CCC(C(=O)O)CC1 (centres undefined) | inconclusive: 0.0065 µM [inhibitor, full curve, poor fit] |
| CN1CCN(CCNC(=O)c2cc3c(=O)n(C)c4ccccc4c3n2C)CC1 | inconclusive: 16.4 µM [activator, partial curve] |
| O=C(Nc1ccc(S(=O)(=O)N2CCCC2)cc1)C1CC(=O)N(c2ccc(F)cc2)C1 (centres undefined) | inactive |
| Cc1nn(Cc2ccc(F)cc2)c(C)c1NC(=O)c1noc2c1CCc1ccccc1-2 | inconclusive: 29.1 µM [inhibitor, single point] |
| O=C(O)C1C2CCCCC2=C2CCCCC2C1C(=O)c1ccccc1 (centres undefined) | inactive |
| Cc1ccc(NCCC(=O)c2cccc([N+](=O)[O-])c2)c(C)c1 | inconclusive: 20.6 µM [activator, partial curve] |
| O=[N+]([O-])c1cccc(-c2noc3c2-c2nc(Cc4cccc5ccccc45)sc2CC3)c1 | inconclusive: 29.1 µM [activator, single point] |
| COC(=O)C1OC2(OC1C(=O)OC)c1ccccc1-c1ccccc12 (centres undefined) | inactive |
| CCNC(=S)N/N=C(\C)c1cccc(C(F)(F)F)c1 | inactive |
| Cc1ccc(C(=O)NCc2ccc3c(c2)CCO3)cc1C | inconclusive: 16.4 µM [activator, partial curve] |
| CCN(CC)CCC(=O)Nc1cccc2c1C(=O)c1ccccc1C2=O | inconclusive: 29.1 µM [inhibitor, single point] |
| COc1cccc(NC(=O)CCC2CCN(C(=O)c3sccc3C)CC2)c1 | inconclusive: 32.6 µM [inhibitor, single point] |
| O=C(CNCCc1ccc(Cl)cc1Cl)NCc1ccco1 | inactive |
| O=C(CC(c1ccccc1)C1CCCCC1=O)c1ccco1 (centres undefined) | inconclusive: 1.16 µM [activator, single point] |

| Structure (SMILES) | Potency |
| --- | --- |
| O=c1c2ccccc2nc(SCc2ccc([N+](=O)[O-])cc2)n1CCCO | inconclusive: 32.6 µM [inhibitor, single point] |
| COc1ccc(N2CC(O)=C(c3nc(-c4ccccc4)cs3)C2=N)cc1 | inactive |
| Cc1occc1C(=O)N=Nc1c(O)[nH]c2ccc(Br)cc12 | inconclusive: 7.31 µM [activator, partial curve] |
| COc1c(OC2OC(C(=O)O)C(O)C(O)C2O)cc(O)c2c(=O)cc(-c3ccccc3)oc12 (centres undefined) | inactive |
| O=C(O)CCn1c(-c2ccccc2)cc2c1CCCC2=O | inconclusive: 0.92 µM [inhibitor, full curve, poor fit] |
| CC(C)(Cc1ccc(O)cc1)NC(=O)CC(=O)N=Nc1c(O)[nH]c2cc(Br)ccc12 | inconclusive: 25.9 µM [inhibitor, partial curve, poor fit] |
| Cc1ccc2c(c1)c1c(n2CC(O)CN2CCOCC2)CCCC1 (centres undefined) | inactive |
| FC(F)(F)C(F)(F)c1nnc2ccc(-n3ccnc3)nn12 | inactive |
| O=C(Nc1ccc(OC(F)(F)F)cc1)c1[nH]ncc1[N+](=O)[O-] | inactive |
| COc1ccc(Cl)cc1C(=O)Nc1cccnc1 | inactive |
| Cc1nc(NC(=O)CC(C)C)sc1-c1csc(Nc2ccc(Cl)cc2Cl)n1 | active: 14.6 µM |
| CCC(=O)C1CCCN(C(=O)CCc2nnc(C3(c4ccc(Cl)cc4)CCC3)o2)C1 (centres undefined) | inconclusive: 16.4 µM [activator, partial curve] |
| Cc1ccc([N+](=O)[O-])cc1NC(=O)c1ccoc1C | inconclusive: 18.4 µM [activator, partial curve] |
| CC1CCN(C(=O)CSCC(=O)Nc2nc(-c3cccs3)cs2)CC1 | inconclusive: 16.4 µM [activator, single point] |
| COc1ccc(NC(=O)COc2ccc(N(C)S(=O)(=O)c3ccc(Cl)cc3)cc2)cc1 | inconclusive: 10.3 µM [inhibitor, partial curve, poor fit] |
| CCOCCCNC(=O)CSCc1nc(-c2ccc(SC)cc2)oc1C | inconclusive: 11.6 µM [inhibitor, partial curve] |
| O=C(O)CC12CC3CC(C1)CC(n1ncc(NCc4ccc(F)cc4Cl)c(Cl)c1=O)(C3)C2 | inconclusive: 29.1 µM [activator, single point] |
| COc1ccc(C)cc1NC(=O)CN(C)S(=O)(=O)c1ccc2c(c1)c(=O)n(C)c(=O)n2C | inconclusive: 23.1 µM [activator, single point] |
| Cc1cc(C)c[n+](CC(=O)c2ccc(-c3ccccc3)cc2)c1 | inconclusive: 9.2 µM [inhibitor, partial curve] |
| COc1ccc(/C=C/C(=O)NCc2ccccn2)cc1OC | inactive |
| Cc1cccc(N2CC(C(=O)OCC(=O)Nc3sccc3C(N)=O)CC2=O)c1C (centres undefined) | inactive |
| O=C(O)c1c2c(nc3ccccc13)/C(=C/c1cccc([N+](=O)[O-])c1)CCC2 | inconclusive: 16.4 µM [activator, single point] |

3 structures from above, sorted by molecular weight, high to low.

| Structure (SMILES) | Potency |
| --- | --- |
| O=C(CNCCc1ccc(Cl)cc1Cl)NCc1ccco1 | inactive |
| O=C(CC(c1ccccc1)C1CCCCC1=O)c1ccco1 (centres undefined) | inconclusive: 1.16 µM [activator, single point] |
| Cc1ccc([N+](=O)[O-])cc1NC(=O)c1ccoc1C | inconclusive: 18.4 µM [activator, partial curve] |
